In patent US5003011A, “Therapeutic decapeptides” (The Administrators of the Tulane Educational Fund, priority 1989, dated 1991):
Not every detail of the peptide structures is certain; ends, links or a residue may be inferred.

Tested on: human mammary tumor (MCF-7)
Test: 6-day subrenal capsule assay, MCF-7 human mammary tumor implanted in mice
Format: in vivo
Conditions: Table 3, QDO5, b.i.d.

`CC(C)[C@@H]1NC(=O)[C@H](CCCCN)NC(=O)[C@@H](Cc2c[nH]c3ccccc23)NC(=O)[C@H](Cc2ccc(O)cc2)NC(=O)[C@@H](NC(=O)[C@H](N)Cc2ccc3ccccc3c2)CSSC[C@@H](C(=O)N[C@H](C(N)=O)[C@@H](C)O)NC1=O` [BIM-23014C, reference compound] was tested. Which “% Test/Control” value (2 μg/inj. s.c.) did it give?
Its value is 45%.

And the “Average Tumor Size (Mean ± S.D.), change Day 6 - Day 0” value (2 μg/inj. s.c.)?
Its value is 1.65 ± 1.00 omu.

What about the “% Test/Control” value (10 μg/inj. s.c.) of the same compound?
Its value is 32%.

What about the “Average Tumor Size (Mean ± S.D.), change Day 6 - Day 0” value (10 μg/inj. s.c.) of the same compound?
The value was 1.15 ± 0.95 omu.

What about the “% Test/Control” value (50 μg/inj. s.c.) of the same compound?
The value was 10%.

What about the “Average Tumor Size (Mean ± S.D.), change Day 6 - Day 0” value (50 μg/inj. s.c.) of the same compound?
The value was 0.35 ± 0.78 omu.
